Drawing on publication doi:10.1101/2024.04.20.590343, this text covers binding for one molecule.

Results are given in words; binding and its absence hold for the method and conditions named. Some results given as binding are weak or reduced against the parent protein; the word gives no strength.

The test has as its target T1, ScPho2 Pho4int (aa 112–407) (S. cerevisiae) (UniProt P07269).
T1 sequence: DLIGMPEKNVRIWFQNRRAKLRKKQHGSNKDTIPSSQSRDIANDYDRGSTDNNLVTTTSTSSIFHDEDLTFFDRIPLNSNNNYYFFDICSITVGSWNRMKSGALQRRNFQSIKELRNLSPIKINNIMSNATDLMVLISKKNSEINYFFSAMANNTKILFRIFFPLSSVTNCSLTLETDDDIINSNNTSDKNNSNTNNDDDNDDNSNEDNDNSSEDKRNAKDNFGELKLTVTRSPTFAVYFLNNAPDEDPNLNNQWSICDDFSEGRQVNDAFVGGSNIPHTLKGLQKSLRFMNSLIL
As to the kind of experiment: two-hybrid; Gal4 AD and Gal4 DBD fusions (pGAD-C3, pGBD-C3) co-transformed into a gal4Δ gal80Δ S. cerevisiae strain, selected on SD -leu -trp; patched, grown at 30°C for 24 hours, replica plated onto SD -leu -trp -ade -his; imaged after 45–50 hours; two independent transformants.

B1: ScPho4ΔDBD (aa 2–250) (domain or fragment, UniProt P07270 2-250)
chain: GRTTSEGIHGFVDDLEPKSSILDKVGDFITVNTKRHDGREDFNEQNDELNSQENHNSSENGNENENEQDSLALDDLDRAFELVEGMDMDWMMPSHAHHSPATTATIKPRLLYSPLIHTQSAVPVTISPNLVATATSTTSANKVTKNKSNSSPYLNKRRGKPGPDSATSLFELPDSVIPTPKPKPKPKQYPKVILPSNSTRRVSPVTAKTSSSAEGVVVASESPVIAPHGSSHSRSLSKRRSSGALVDDD
For B1, the binding result is listed as “binds”.
